Measured values: patent publication EP0105690A1, “Bleaching compositions” (THE PROCTER & GAMBLE COMPANY, priority 1982, dated 1984)

Test: Destruction of methylene blue dye in solution, percent transmittance (solution bleaching)
Settings: pH about 10.00, 37°C, 30 seconds, compared with m-chloroperoxybenzoic acid alone

With O=S(=O)(Cl)c1cccc(S(=O)(=O)Cl)c1 [1,3-benzenedisulfonyl chloride] the “destruction of the methylene blue dye (change in percent T)” value (6.25 x 10^-5 molar added to m-chloroperoxybenzoic acid 1.25 x 10^-4 molar) was “rapidly increases the destruction of the methylene blue dye” and the “destruction of the methylene blue dye (change in percent T)” value (added to benzoyl peroxide) was “rapidly increases the destruction of the methylene blue dye”.
